This test addresses K258R mutant HIV-1 IN (integrase), N-terminally HA-tagged (HIV-1). The test is described as follows: affinity purification with mass spectrometry; HA-IN (WT or K258R) expressed 24 h in HEK293T; NP-40 lysis buffer (20 mM Tris HCl pH 8, 137 mM NaCl, 2 mM EDTA, 1% NP-40); HA-coated magnetic beads overnight at 4 °C; hits against an empty HA-vector control.

These are yes or no findings as the source states them, for the method shown. In cells and extracts the contact can be indirect. A yes stands for co-enrichment or nearness to the bait. Other partners may have been found.

B1: NCAPD3 (protein, UniProt P42695 1-1498)
chain: MVALRGLGSGLQPWCPLDLRLEWVDTVWELDFTETEPLDPSIEAEIIETGLAAFTKLYESLLPFATGEHGSMESIWTFFIENNVSHSTLVALFYHFVQIVHKKNVSVQYREYGLHAAGLYFLLLEVPGSVANQVFHPVMFDKCIQTLKKSWPQESNLNRKRKKEQPKSSQANPGRHRKRGKPPRREDIEMDEIIEEQEDENICFSARDLSQIRNAIFHLLKNFLRLLPKFSLKEKPQCVQNCIEVFVSLTNFEPVLHECHVTQARALNQAKYIPELAYYGLYLLCSPIHGEGDKVISCVFHQMLSVILMLEVGEGSHRAPLAVTSQVINCRNQAVQFISALVDELKESIFPVVRILLQHICAKVVDKSEYRTFAAQSLVQLLSKLPCGEYAMFIAWLYKYSRSSKIPHRVFTLDVVLALLELPEREVDNTLSLEHQKFLKHKFLVQEIMFDRCLDKAPTVRSKALSSFAHCLELTVTSASESILELLINSPTFSVIESHPGTLLRNSSAFSYQRQTSNRSEPSGEINIDSSGETVGSGERCVMAMLRRRIRDEKTNVRKSALQVLVSILKHCDVSGMKEDLWILQDQCRDPAVSVRKQALQSLTELLMAQPRCVQIQKAWLRGVVPVVMDCESTVQEKALEFLDQLLLQNIRHHSHFHSGDDSQVLAWALLTLLTTESQELSRYLNKAFHIWSKKEKFSPTFINNVISHTGTEHSAPAWMLLSKIAGSSPRLDYSRIIQSWEKISSQQNPNSNTLGHILCVIGHIAKHLPKSTRDKVTDAVKCKLNGFQWSLEVISSAVDALQRLCRASAETPAEEQELLTQVCGDVLSTCEHRLSNIVLKENGTGNMDEDLLVKYIFTLGDIAQLCPARVEKRIFLLIQSVLASSADADHSPSSQGSSEAPASQPPPQVRGSVMPSVIRAHAIITLGKLCLQHEDLAKKSIPALVRELEVCEDVAVRNNVIIVMCDLCIRYTIMVDKYIPNISMCLKDSDPFIRKQTLILLTNLLQEEFVKWKGSLFFRFVSTLIDSHPDIASFGEFCLAHLLLKRNPVMFFQHFIECIFHFNNYEKHEKYNKFPQSEREKRLFSLKGKSNKERRMKIYKFLLEHFTDEQRFNITSKICLSILACFADGILPLDLDASELLSDTFEVLSSKEIKLLAMRSKPDKDLLMEEDDMALANVVMQEAQKKLISQVQKRNFIENIIPIIISLKTVLEKNKIPALRELMHYLREVMQDYRDELKDFFAVDKQLASELEYDMKKYQEQLVQEQELAKHADVAGTAGGAEVAPVAQVALCLETVPVPAGQENPAMSPAVSQPCTPRASAGHVAVSSPTPETGPLQRLLPKARPMSLSTIAILNSVKKAVESKSRHRSRSLGVLPFTLNSGSPEKTCSQVSSYSLEQESNGEIEHVTKRAISTPEKSISDVTFGAGVSYIGTPRTPSSAKEKIEGRSQGNDILCLSLPDKPPPQPQQWNVRSPARNKDTPACSRRSLRKTPLKTAN
As to B1, the binding result is recorded as “binds”.

(Values after publication PMC8933506.)
